Values from PubChem BioAssay AID1224830 (NIAID, 2016).
Assay: 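Regulators of TLR4 signalling towards TNF-alpha in macrophage-like cells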 (primary screen). Cell system: human THP-1 monocytic leukaemia cells, TNF dual-luciferase reporter clone, PMA-differentiated to macrophage-like cells. Knock-down reagent: siRNA pool against human genes, 50 nM. Duration: LPS for 4 h, given about 3 days after siRNA transfection. Challenge: bacterial LPS (TLR4 ligand), 10 ng/ml. Detection: 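TNF firefly reporter luminescence divided by renilla, normalised to the plate median, then turned into a robust z-score for each replicate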. Reading the numbers: TNF reporter robust z-score: higher = stronger TNF reporter response to LPS. Rule for the call: 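a well is active when its z-score exceeds 2.8 or falls below -1.5; control wells carry no call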.
In all, the deposit lists about 18,000 reagents; this is an unselected part. About 2,900 of all reagents (16%) were called active. 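Calls are made per well; low scores hint the gene aids the LPS response, high scores that it dampens it.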 Unmarked entries are inactive. Repeated entries: four replicate wells of each siRNA pool.

MTCP1 (mature T cell proliferation 1): TNF reporter robust z-score = 2.25
MTCP1 (mature T cell proliferation 1): TNF reporter robust z-score = 3.12 (active)
MTCP1 (mature T cell proliferation 1): TNF reporter robust z-score = -1.36
MTCP1 (mature T cell proliferation 1): TNF reporter robust z-score = -0.17
VGLL4 (vestigial like family member 4): TNF reporter robust z-score = -0.15
VGLL4 (vestigial like family member 4): TNF reporter robust z-score = -0.21
VGLL4 (vestigial like family member 4): TNF reporter robust z-score = 0.01
VGLL4 (vestigial like family member 4): TNF reporter robust z-score = 0.34
MAB21L2 (mab-21 like 2): TNF reporter robust z-score = -0.43
MAB21L2 (mab-21 like 2): TNF reporter robust z-score = 0.21
MAB21L2 (mab-21 like 2): TNF reporter robust z-score = -0.7
MAB21L2 (mab-21 like 2): TNF reporter robust z-score = 0.2
ZNF839 (zinc finger protein 839): TNF reporter robust z-score = -0.23
ZNF839 (zinc finger protein 839): TNF reporter robust z-score = -0.54
ZNF839 (zinc finger protein 839): TNF reporter robust z-score = -0.22
ZNF839 (zinc finger protein 839): TNF reporter robust z-score = 0.37
SMAD6 (SMAD family member 6): TNF reporter robust z-score = -0.9
SMAD6 (SMAD family member 6): TNF reporter robust z-score = -0.74
SMAD6 (SMAD family member 6): TNF reporter robust z-score = -0.75
SMAD6 (SMAD family member 6): TNF reporter robust z-score = -1.04
RABL3 (RAB, member of RAS oncogene family like 3): TNF reporter robust z-score = -0.87
RABL3 (RAB, member of RAS oncogene family like 3): TNF reporter robust z-score = -0.85
RABL3 (RAB, member of RAS oncogene family like 3): TNF reporter robust z-score = -0.77
RABL3 (RAB, member of RAS oncogene family like 3): TNF reporter robust z-score = -0.65
FAM219A (family with sequence similarity 219 member A): TNF reporter robust z-score = 1.41
FAM219A (family with sequence similarity 219 member A): TNF reporter robust z-score = -0.01
FAM219A (family with sequence similarity 219 member A): TNF reporter robust z-score = 2.4
FAM219A (family with sequence similarity 219 member A): TNF reporter robust z-score = 0.44
FCGR2B (Fc gamma receptor IIb): TNF reporter robust z-score = 0.05
FCGR2B (Fc gamma receptor IIb): TNF reporter robust z-score = -0.11
FCGR2B (Fc gamma receptor IIb): TNF reporter robust z-score = -1.16
FCGR2B (Fc gamma receptor IIb): TNF reporter robust z-score = 0

Reprinted from the listing for reference:
ZNF839 (zinc finger protein 839): TNF reporter robust z-score = -0.22
ZNF839 (zinc finger protein 839): TNF reporter robust z-score = 0.37
SMAD6 (SMAD family member 6): TNF reporter robust z-score = -0.9
